Like-named read-outs stand apart in the source and are kept apart here.
What was measured:
SARS‐CoV‐2 Nsp15 [1] = biological target: T1, SARS‐CoV‐2 Nsp15 (Severe acute respiratory syndrome coronavirus 2, UniProt P0DTD1); assay: biochemical
SARS‐CoV‐2 Nsp15 [2] = biological target: T1, SARS‐CoV‐2 Nsp15; assay: biochemical; remark: listed apart in the source

COc1cc(OC)cc(N(CCNC(C)C)c2ccc3ncc(-c4cnn(C)c4)nc3c2)c1 [Erdafitinib]
IC50 (SARS‐CoV‐2 Nsp15 [1]; IC50 + DTT (μM) (CI in μM)): 3.2 µM
IC50 (SARS‐CoV‐2 Nsp15 [1]; IC50 +DTT (µM)): 3.15 µM
inhibition at 10 µM (SARS‐CoV‐2 Nsp15 [1]; hit confirmation, 10 µM, DTT buffer, read-out: HC inhibition % +DTT 10 µM): 66.6%
inhibition at 10 µM (SARS‐CoV‐2 Nsp15 [1]; primary screen, 10 µM (Table S1), read-out: PS Inhibition % 10 µM): 57.2%
inhibition at 10 µM (SARS‐CoV‐2 Nsp15 [1]; primary screen, 10 μM compound, 1 mM DTT buffer, normalized to 50 μM Congo red (100%) and DMSO (0%), read-out: PS inhibition % 10 μM (single point measurement)): 57.2%
inhibition at 10 µM (SARS‐CoV‐2 Nsp15 [2]; 10 µM, L-cysteine buffer, read-out: Inhibition % +L-Cys 10 µM): 68.2%
IC50 (SARS‐CoV‐2 Nsp15 [2]; IC50 + L‐Cys (μM) (CI in μM)): 4.3 µM
IC50 (SARS‐CoV‐2 Nsp15 [2]; IC50 +L-Cys (µM)): 4.28 µM

Source: paper PMC12079475, “Identification, validation, and characterization of approved and investigational drugs interfering with the SARS‐CoV‐2 endoribonuclease Nsp15” (Protein Science : A Publication of the Protein Society, 2025)
